Results are given in words; binding and its absence hold for the method and conditions named. Some results given as binding are weak or reduced against the parent protein; the word gives no strength.
What was measured:
H-Ras (12V) [1] = biological target: H-Ras (12V) (UniProt P01112); assay: chemical cross-linking, release from 34-43 kDa complexes, immunoblot
H-Ras (12V) [2] = biological target: H-Ras (12V) (UniProt P01112); assay: cross-linking of membranes, release from 34-43 kDa band, immunoblot (FIG. 4)
[3] = biological target: wild-type H-Ras of untransformed Rat-1 cells (UniProt P20171); assay: as above
[4] = biological target: wild-type H-Ras of untransformed Rat-1 cells (UniProt P20171); assay: DSP cross-linking, purification of 34-43 kDa complexes, release by DTT, gel staining

By UniProt entry, the sequences of proteins in these tests, tags left out. Where a name states a change or a piece, a line headed by the entry shows the natural chain unless it says otherwise. Residues count along the entry.
UniProt P08699, residues 2-262: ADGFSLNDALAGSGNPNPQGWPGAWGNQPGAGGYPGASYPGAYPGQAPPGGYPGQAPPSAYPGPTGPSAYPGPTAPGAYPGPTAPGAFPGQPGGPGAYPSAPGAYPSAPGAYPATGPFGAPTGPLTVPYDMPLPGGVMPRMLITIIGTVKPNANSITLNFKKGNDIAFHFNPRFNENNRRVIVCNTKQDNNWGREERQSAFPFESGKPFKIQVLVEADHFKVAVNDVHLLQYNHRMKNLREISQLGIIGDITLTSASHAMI
UniProt P11762: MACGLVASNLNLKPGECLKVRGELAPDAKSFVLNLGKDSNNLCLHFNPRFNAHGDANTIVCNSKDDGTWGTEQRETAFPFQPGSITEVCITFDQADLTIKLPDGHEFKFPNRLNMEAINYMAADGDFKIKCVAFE

| binding (H-Ras (12V) [1]) | binding (H-Ras (12V) [2]) | binding [3] | binding [4] | Substance |
| --- | --- | --- | --- | --- |
| binds | binds | binds | – | galectin-3 of Rat-1 derived cells (from UniProt P08699 2-262) |
| – | – | binds | binds | rat galectin-1 (from UniProt P11762 2-135) |

Reference: patent US20040072258A1, “Isoprenoid-dependent ras anchorage (idra) proteins” (priority 2003, published 2004)
